Values quoted from earlier work as cited in US7476672B2, “Acetylenic compounds useful in treating inflammatory disorders” (Janssen Pharmaceutica N.V., priority 2002, dated 2009).
Read-outs that look alike come from different tables or passages of the source.

System: potassium peroxochromate arthritis
Conditions: mice, cited from earlier work

CN[C@@H]1C[C@H]2O[C@@](C)([C@@H]1OC)n1c3ccccc3c3c4c(c5c6ccccc6n2c5c31)C(=O)NC4 [staurosporine]
inhibition of the arthritis (100 nmol): 85%
inhibition of the arthritis (daily doses of 30 nmol/kg): 50%
